The record followed here is publication PMC7229178.

Sequences of proteins named here, by UniProt entry; tags and fusion partners are left off. Residues count along the entry.
UniProt Q96D31: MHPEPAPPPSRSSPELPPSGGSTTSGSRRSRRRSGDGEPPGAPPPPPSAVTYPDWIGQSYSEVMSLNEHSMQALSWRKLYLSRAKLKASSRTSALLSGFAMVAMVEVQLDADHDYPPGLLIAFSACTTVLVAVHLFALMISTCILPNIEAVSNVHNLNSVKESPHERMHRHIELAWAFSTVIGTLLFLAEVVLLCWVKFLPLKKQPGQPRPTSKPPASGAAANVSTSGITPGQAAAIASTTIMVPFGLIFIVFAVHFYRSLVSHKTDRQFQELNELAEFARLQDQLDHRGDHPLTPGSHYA
UniProt Q13586, residues 23-685: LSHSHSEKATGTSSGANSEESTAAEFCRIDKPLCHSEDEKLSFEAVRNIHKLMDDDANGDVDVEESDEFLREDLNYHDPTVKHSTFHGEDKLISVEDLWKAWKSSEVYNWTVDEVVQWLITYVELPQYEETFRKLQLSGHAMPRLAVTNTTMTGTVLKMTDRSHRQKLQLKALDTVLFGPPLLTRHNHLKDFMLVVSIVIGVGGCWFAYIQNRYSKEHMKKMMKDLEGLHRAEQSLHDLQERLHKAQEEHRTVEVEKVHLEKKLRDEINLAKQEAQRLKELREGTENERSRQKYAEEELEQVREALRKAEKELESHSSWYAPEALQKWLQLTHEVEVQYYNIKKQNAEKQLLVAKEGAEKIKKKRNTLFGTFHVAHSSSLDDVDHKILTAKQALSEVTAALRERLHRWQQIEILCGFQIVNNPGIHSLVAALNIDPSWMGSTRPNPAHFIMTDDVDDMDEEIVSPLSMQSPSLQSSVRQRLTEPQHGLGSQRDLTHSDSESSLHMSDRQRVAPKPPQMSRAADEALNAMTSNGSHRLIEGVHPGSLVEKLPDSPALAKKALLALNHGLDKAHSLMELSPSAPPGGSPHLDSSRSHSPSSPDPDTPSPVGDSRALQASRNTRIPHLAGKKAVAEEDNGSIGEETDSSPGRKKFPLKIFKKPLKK
UniProt Q96SN7: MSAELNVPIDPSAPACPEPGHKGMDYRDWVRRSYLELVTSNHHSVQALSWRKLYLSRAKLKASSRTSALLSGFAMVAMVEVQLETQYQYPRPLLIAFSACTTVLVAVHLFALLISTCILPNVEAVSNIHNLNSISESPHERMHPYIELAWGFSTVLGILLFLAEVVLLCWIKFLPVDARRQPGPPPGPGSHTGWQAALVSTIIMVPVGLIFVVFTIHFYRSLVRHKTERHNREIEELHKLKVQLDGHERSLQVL

One assay addresses CFP/YFP-tagged ORAI1 (UniProt Q96D31). The experiment in a line: FRET or BRET; E-FRET microscopy in live ORAI-TKO HEK293 cells co-expressing two CFP/YFP-tagged ORAI isoforms with STIM1-mCherry; room temperature; at baseline and 5 min after 10, 30 or 100 µM Cch or 1 µM ionomycin. On the technique in general: Bioluminescence resonance energy transfer reports proximity on the nanometre scale.

The target in a further assay is STIM1-YFP (UniProt Q13586). The experiment in a line: FRET or BRET; E-FRET microscopy in live ORAI-TKO HEK293 cells co-expressing STIM1-YFP and one CFP-ORAI isoform; room temperature; HBSS with 2 mM Ca2+; at rest and after 2 µM thapsigargin; measured every 20 s for 10 min; YFP/CFP ratios of ~1.

No constants are given. Whether binding was seen depends on the method and setting. In cells and extracts the contact can be indirect. Some entries that bind do so weakly or less than the wild type.

“CFP/YFP-tagged ORAI2 (from UniProt Q96SN7 1-254)”: the binding result with CFP/YFP-tagged ORAI1 is listed as “binds”.

Turning to CFP-ORAI2 (from UniProt Q96SN7 1-254), the binding entry with STIM1-YFP is reported as “binds”.
